Patent US20140088027A1, “PHARMACEUTICAL COMPOSITION COMPRISING AN SGLT2 INHIBITOR AND A PPAR- GAMMA AGONIST AND USES THEREOF” (BOEHRINGER INGELHEIM INTERNATIONAL GMBH, priority 2010, published 2014)
For at least one compound, name, drawing or mass did not settle the structure.

How the values were obtained:
[1] = Body composition (FoodScan NIR) in cafeteria-diet obese female Wistar rats; assay type: in vivo, rat; details: 10 mg/kg po once daily each
Method: (§1) An animal model of obesity was used to study the effect of Cpd. A, Pioglitazone or the combination of Cpd. A with Pioglitazone on body weight and total body fat content. For this, female Wistar rats were made obese by exposure to a simplified cafeteria diet containing high fat chow, chocolate and ground peanuts for approximately 19 weeks. Following the induction of obesity, rats were given vehicle (0.5% aqueous hydroxyethylcellulose) for 7 days and were then dosed orally once-daily with either vehicle, 10 mg/kg Cpd. A, 10 mg/kg Pioglitazone, or the combination of Cpd. A and Pioglitazone for 29 days. For the duration of the study rats were maintained on cafeteria diet.
At the end of the study on Day 31 (24 hours after the last treatment on Day 30) all rats were terminated, the body exsanguinated and the following tissues removed: the caudate liver lobe, the pancreas, the kidneys. Body composition (body fat, protein and water) was determined using the FoodScan NIR (near infra-red) meat analyser (Foss UK). This machine has AOAC (Association of Official Analytical Chemists) approval as reference method for the analysis of moisture, fat and protein in meat. The carcasses were milled under liquid nitrogen and a portion of the milled carcass was analysed in the FoodScan Analyser. […]

[2] = Plasma insulin in cafeteria-diet obese female Wistar rats; assay type: in vivo, rat; details: fed, 10 mg/kg po once daily each, after 28/29 days
Method: as §1
After 28 days of treatment, blood samples were collected from the tail vein (from fed animals) for analysis of insulin. Plasma insulin values were determined by using a Millipore Luminex RENDO 85K kit.
In FIG. 2, results are mean plasma insulin levels±SEM after 29 days of once-daily oral treatment with the glucopyranosyl-substituted benzene derivative (Cpd. A), Pioglitazone or the combination of both Cpd. A and Pioglitazone at the indicated doses. Plasma insulin values were analyzed by unpaired t-test. P values versus vehicle control are indicated by symbols above the bars (*, p<0.05; **, p<0.01; ***, p<0.001). […] Combination of Cpd.

Compound: CCc1ccc(CCOc2ccc(CC3SC(=O)NC3=O)cc2)nc1 (centres unmarked) [Pioglitazone, pioglitazone]
- body fat content in comparison to vehicle-treated control (in words) [1]: significant increase of body fat content
- plasma insulin levels versus vehicle control [2]: significantly decreased plasma insulin levels
